PubChem BioAssay AID743454 | Peter MacCallum Cancer Centre, 2014
In all, the deposit lists about 18,000 reagents; this is an unselected part. 450 of them (2.5%) were called active. 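Single biological run; no consistent viability z cut-off exists, so the class columns, not z-scores, define the calls.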 Entries without a mark were called inactive. No sequences are given here.

Screen: 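Search for knock-downs that restore vorinostat killing in resistant colon cancer cells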 (primary screen)
Cell system: human HCT116-VR colon cancer cells, selected for vorinostat resistance
Reagent: siRNA pool against human genes, 40 nM siRNA pool
Duration: vorinostat for 24 h, read-out about 72 h after transfection
Conditions: vorinostat at 2.5 µM final
Read-out: 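Two measures, CellTiter-Fluor viability and luminescent caspase 3/7 activity, each as fold change against same-plate mock wells, mean of duplicates, then screen-wide robust z-score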
Scale: viability robust z-score: higher = more viable cells than screen typical; caspase robust z-score: higher = more caspase 3/7 activity than screen typical
Call rule: 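Hits are knock-downs in viability class RV1/RV2 or caspase class CA1/CA2, excluding ones that killed cells in the no-drug cell-count arm; hits then retested with single siRNAs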

| gene symbol | viability hit class | caspase hit class | viability robust z-score | caspase robust z-score |
| --- | --- | --- | --- | --- |
| P2RY14 | no change | no change | 0.22 | 1.55 |
| VPS41 | no change | no change | -0.36 | -0.26 |
| LCE1B | no change | no change | -0.97 | -0.69 |
| SMIM7 | no change | no change | -1.05 | 0.12 |
| ANKRD24 | no change | no change | 0.86 | 0.16 |
| BBOX1 | no change | no change | 1.32 | -0.17 |
| INO80D | no change | no change | -0.71 | 0.34 |
| SLFN11 | no change | no change | 1.36 | -0.83 |
| SLC12A8 | no change | no change | 0.51 | -0.84 |
| WDR75 | no change | no change | -1.88 | -0.14 |
| LIX1 | no change | no change | 0.16 | -0.52 |
| NALF1 | no change | no change | 0.45 | -0.46 |
| OR8J3 | no change | no change | -0.32 | -0.67 |
| COP1 | no change | no change | -0.34 | -0.48 |
| PCF11 | no change | no change | -2.36 | -0.22 |
| LAMTOR5 | no change | no change | 0.9 | 1.12 |
| COCH | no change | no change | 0.39 | -0.51 |
| THY1 | no change | no change | -0.03 | 0.02 |

Next part (2 carried over from the part before).
| gene symbol | viability hit class | caspase hit class | viability robust z-score | caspase robust z-score |
| --- | --- | --- | --- | --- |
| COCH | no change | no change | 0.39 | -0.51 |
| THY1 | no change | no change | -0.03 | 0.02 |
| MAP2K7 | no change | no change | -0.44 | 3.71 |
| COPG2 | no change | no change | 0.87 | -0.02 |
| TMEM177 | no change | no change | -1.56 | 3.85 |
| AKR1C6P | no change | no change | 0.57 | 1.8 |
| POLA1 | no change | no change | 1.11 | 0.6 |
| KDELR1 | no change | no change | 1.03 | -0.26 |
| USP11 | no change (active) | CA2 (caspase activation) | -0.42 | 5.88 |
| TSR2 | no change | no change | -1.62 | 0.1 |
| SNORC | no change | no change | 0.74 | 1.62 |
| FGFR2 | no change | no change | 0.02 | 2.38 |
| FAF1 | no change | no change | -0.6 | -1.08 |
| ALG2 | no change | no change | 0.94 | 0.2 |
| ZDHHC22 | no change | no change | 0.36 | 1.1 |
| SIL1 | no change | no change | -0.98 | -0.76 |
| SPP2 | no change | no change | 0.1 | 0.82 |
| SLC22A12 | no change | no change | -0.11 | -0.65 |
| CRLS1 | no change | no change | 0.7 | 0.18 |
| ALKBH3 | no change | no change | 1.38 | -0.31 |
| SLAMF1 | no change | no change | -0.12 | -0.06 |
| DYNLT2B | no change | no change | 1.29 | 0.06 |
| IL18 | no change | no change | -0.44 | 1.4 |
